{"source": "PubChem BioAssay AID602196 (INSERM, 2012)", "purpose": "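Genes whose knock-down alters cisplatin killing of lung cancer cells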", "cell system": "human A549 lung cancer cells", "reagent": "siRNA pair against human genes", "timing": "48 h transfection before cisplatin; time from cisplatin to read-out not stated", "treatment": "cisplatin at a dose killing half of control-siRNA cells; exact dose and duration not given", "measured": "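Cisplatin cell death as a shift from the 50% death seen with control siRNA; siRNAs toxic or growth-blocking alone scored 0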", "scale": "two-siRNA summed score (-2 to +2): higher = both siRNAs protect from cisplatin killing; -2 means both sensitise", "hit rule": "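Each siRNA scores 0 if harmful alone by LDH or WST-1, otherwise +1 if it reduces and -1 if it increases cisplatin killing; a gene is active when both siRNAs agree (sum +2 or -2)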", "meaning of the calls": "active = both siRNAs shift cisplatin killing the same way; inactive = no consistent shift, or siRNA harmful alone", "note": "The deposit covers about 23,000 reagents; below is a random part of them. 455 of all reagents (2%) were called active. 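Active includes both protection and sensitisation; some change values fall well beyond the stated -50 to +50 range.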 Not all columns of the deposit are shown. Not given: the amount of reagent."}
{"Gene":"RAPGEF6","two-siRNA summed score (-2 to +2)":0,"Outcome":"inactive"}
{"Gene":"VPS26C","two-siRNA summed score (-2 to +2)":0,"Outcome":"inactive"}
{"Gene":"STRIP2","two-siRNA summed score (-2 to +2)":0,"Outcome":"inactive"}
{"Gene":"SHD","two-siRNA summed score (-2 to +2)":-1,"Outcome":"inactive"}
{"Gene":"PIGU","two-siRNA summed score (-2 to +2)":1,"Outcome":"inactive"}
{"Gene":"IDI2-AS1","two-siRNA summed score (-2 to +2)":0,"Outcome":"inactive"}
{"Gene":"LOC441760","two-siRNA summed score (-2 to +2)":0,"Outcome":"inactive"}
{"Gene":"TMEM43","two-siRNA summed score (-2 to +2)":0,"Outcome":"inactive"}
{"Gene":"OR51E1","two-siRNA summed score (-2 to +2)":0,"Outcome":"inactive"}
{"Gene":"LOC441599","two-siRNA summed score (-2 to +2)":1,"Outcome":"inactive"}
{"Gene":"H4C3","two-siRNA summed score (-2 to +2)":0,"Outcome":"inactive"}
{"Gene":"HIBADH","two-siRNA summed score (-2 to +2)":0,"Outcome":"inactive"}

A stretch taken from the entries so far, for reference:
{"Gene":"PIGU","two-siRNA summed score (-2 to +2)":1,"Outcome":"inactive"}
{"Gene":"IDI2-AS1","two-siRNA summed score (-2 to +2)":0,"Outcome":"inactive"}
